# Assay results reported in patent US8519154B2, “Method for treatment of bronchial asthma” (Council of Scientific & Industrial Research, priority 2011, dated 2013).
# Test system: mice
# Experiment: Charcoal meal transit time
# Type: in vivo
# Conditions: 0.1 mg/kg (i.p.)
# Experimental: […] charcoal suspension (20 ml/kg prepared as a 5% solution in 10% gum acacia) was administered perorally 60 min after D8 administration (perorally). After 30 min, charcoal meal administration small intestines were excised and aligned parallel to a ruler. Ratio of the distance traveled by the charcoal meal to the total length of the small intestine was determined for the control (untreated) and Compound I treated mice [Ali, B. H. Bashir, A A. The effect of alpha 2-receptor agonists and antagonists on gastro-intestinal transit time. Clinical and Experimental Pharmacology and Physiology, 20 (1993) 1-6].
compound,measurement,value
"CN1[C@@H]2CC[C@H]1CC(OC(=O)C(CO)c1ccccc1)C2.CN1[C@@H]2CC[C@H]1CC(OC(=O)C(CO)c1ccccc1)C2.O=S(=O)(O)O (stereo partly shown) [Atropine sulphate, reference compound]",% Transport (Mean ± SEM),41.7 ± 2.52 %
